Test results from the supplement of paper PMC10338343.
± gives the standard deviation. The entries are a selection whose mix differs from that of the whole data set. Many entries were measured with a wide error.

Test system: MIWI (PIWIL1) piRISC loaded with piRNA #2 (30 nt)
Experiment: pre-steady-state target cleavage rate (min^-1); MIWI and MILI are mouse PIWI proteins and EfPiwi is from a freshwater sponge; tags in brackets are library labels; higher = faster piRNA-guided slicing of the target
Conditions: guide: piRNA #2 5'p-UUAGGUAACCCAGUAGAUCCAGAGGAAUUC; auxiliary factor: 500 nM mouse GTSF1
Method in brief: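 Using HEPES–potassium acetate buffer at 33 °C, 1 nM active affinity-purified piRISC with a single synthetic guide was mixed with 0.1 nM transcribed, DNA-blocked target RNA library for 0–8 or 0–960 min, with or without 500 nM GTSF1 partner protein. Uncleaved targets were sequenced and normalised to depth and to weakly complementary targets, and three trials were pooled with k3 capped at 0.0001 min^-1. A burst-and-steady-state fit gave the pre-steady-state cleavage rate.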

Sequence | pre-steady-state target cleavage rate
CUUAAGGAGACGAUCUACAGGCUUACCUAA | 0.000901 ± 0.0083
CUUAAGGUCUGCAUCUAGUGGGUUACCUAA | 0.0327 ± 0.0059
GAAUUCCUCUGCUUCUACUGGGUUACCUAA | 0.48 ± 0.04
CUUAAGGAGACCAUCUACUGCGUUAGCUAA | 0.000751 ± 0.015
CUUAAGGAGACCUAGAUCUGGGUUGACCUAA | 0.000547 ± 0.011
CUUAAGGAGACCUUCUACUGGUUACCUAA | 0.0018 ± 0.0058
CUUAAGGAGACCUAGAUGGGGGUUACCUAA | 0.0013 ± 0.012
CUUAAGGAGACCAUCUACUGGGCUUACCUAA | 0.000762 ± 0.0092
CUUAAGGAGUGGAUCUACAGGGUAACCUAA | 0.00234 ± 0.005
CUUAACCUCUGGAUCUAGACGGUUACCUAA | 0.000904 ± 0.0083
CUUAAGGAGACCUUCUACAGGGUUACGUAA | 0.00202 ± 0.0063
CUUAAGGAGACGAUCUACUGGUGUUACCUAA | 0.000309 ± 0.024
CUAUUCCUCCGGAUCUACUGGGUUACCUAA | 0.697 ± 0.12
CUUAAGGAGACCUAGAUGUGGGUUACCUAC [g2:g12:cont:t1C] | 0.000747 ± 0.01
CUUAAGGAGAGGUUCUACUGGCUUACCUAA | 0.00217 ± 0.0052
CUUAAGGAGAGGAUCUAGUGGGUUACCUAA | 0.000885 ± 0.011
CUUAAGCUCUGGAUCUUGUGGGUUACCUAA | 0.00325 ± 0.0043
CUAUUCCUCUGGAUCUACUGGUGUUACCUAA | 0.00505 ± 0.0032
CUUAAGGAGACCUAGAUCAGGGUAACCUAA | 0.000198 ± 0.021
CUUAAGGAGACCAUAUACUGGGUUACCUAA | 0.00152 ± 0.0057
CUUAAGGAGACGAUGAUCUGGGUUACCUAA | 0.000165 ± 0.04
CUUAAGCUCUGGAUCUACUGGGUUACCCAA | 0.00358 ± 0.005
CUUAAGGAGAGGAUCUACUCGGUUACCUAA | 0.00249 ± 0.0065
CUUAAGGAGUGGAUCUACUGGCUUUCCUAA | 0.000262 ± 0.021

Sequence | pre-steady-state target cleavage rate
CUUAACCACUGGAUCUACUGGGUUACGUAA | 0.402 ± 0.031
CUUAAGGAGACGAUCUACUGGGGUACCUAA | 0.0004 ± 0.018
CUUAAGGAGAGCAUCUACUGGGAUACCUAA | 0.000651 ± 0.0089
CUUAAGGAGAGGAUCUACUGGGUUUCCUUA | 0.00157 ± 0.006
CUUAAGGAGACCAUCUACUGGGUUACUUAA | 0.00134 ± 0.004
CUUAAGGAGACCAUCUACUGGGUUACCCAA | 0.00145 ± 0.0065
CUUAAGGAGACCUGCUACUGGGUUACCUAA | 0.00305 ± 0.004
CUUAAGGAGACCUACUACUGGGUUACCUA | 0.00141 ± 0.0042
CUUAAGGAGACCUACCACUGGGUUACCUAA | 0.000878 ± 0.0081
CUUAAGGAGACCUAGUACUGGUGUUACCUAA | 0.000372 ± 0.018
CUUAAGGAGUGGAUCUACUGCGGUUACCUAA | 0.000359 ± 0.012
CUUAAGCUCUGCAUCUACUGGGUUAGCUAA | 0.182 ± 0.027
CUUUUCCUCUGGAUCUACUGGGUUAGGAUA [g6:g27:cont:t1A] | 0.00298 ± 0.0048
CUUAAGGUCUGGAUCUACCUGGGUUACCUAA | 0.000628 ± 0.011
CUUAAGGAGACCUAGUACUGCGUUACCUAA | 0.0013 ± 0.0071
CUUAAGGAGUCGAUCUACUGGGUUACGUAA | 0.00611 ± 0.0073
CAAUUCCUCUGGAUCCUACUGGGUUACCUAA | 0.29 ± 0.055
CUUAAGGAGACCUACUACUGGGGUUACCUAA | 0.000805 ± 0.0098
CUUAAGGAGACCUACUACUGGGUUCCUAA | 0.00023 ± 0.017
CUUAAGGAGACGAUCUACUGGGUCUACCUAA | 0.00139 ± 0.0066
CUUAAGGAGACGAUCUACUGGGUUACCUA | 0.00209 ± 0.0031
CUUAAGGAGAGAAUCUACUGGGUUACCUAA | 0.00332 ± 0.0043
CUUAAGGAGACGAUCUACUGGGUUACCGUAA | 0.00254 ± 0.004
CUUUUCCUCUGGAUCUACACCCAAUGGAUA [g13:g27:cont:t1A] | 0.000383 ± 0.014

Sequence | pre-steady-state target cleavage rate
CUUAAGGAGUGGAUCUACUGGCUUACGUAA | 0.00371 ± 0.011
CUUAAGGAGACCAACUACUGGGUUAGCUAA | 0.00124 ± 0.0084
CAAUUCCUCUGGAUCUACUGCGGUUACCUAA | 0.00358 ± 0.0036
CUUAAGGAGUGCAUCUACUGCGUUACCUAA | 0.00153 ± 0.0085
CUUAAGGACAGCAUCUACUGGGUUACCUAA | 0.00648 ± 0.0035
CUUAAGGAGACCUACUACUGGGUUCACCUAA | 0.00119 ± 0.008
CAAUUCCUCUCGUUCUACUGGGUUACCUAA | 0.82 ± 0.071
CUUAAGGAGACCUAGAUCAGGGUUACGUAA | 0.000668 ± 0.01
CUUAAGGAGACGAUCUACUGGGUAACCUAA | 0.000263 ± 0.029
CUUUUCCUCUGGAUCUACUGGUUACCUAA | 0.0817 ± 0.016
CUUAAGGAGACCAUCUACUGGGUUAUCUAA | 0.00136 ± 0.0059
CUUAAGGAGACCUAGAUCUGGGUUACCUA | 0.000601 ± 0.0065
CUUAAGGAGACGAUCUUCUCGGUUACCUAA | 0.000872 ± 0.011
CUAUUCCUCUGGAUCUACUGAGUUACCUAA | 0.823 ± 0.06
CUUAAGGAGACCAUCUACUCGGUUACCUAA | 0.00138 ± 0.0047
CUUAUCCUCUGGAUCUUCUGGGAUACCUAA | 0.144 ± 0.025
CUUAAGGAGUGGAUCUACUGGGGUUACCUAA | 0.000179 ± 0.023
CUUAAGGUCUGGAUCUAUCUGGGUUACCUAA | 0.000339 ± 0.02
CUUAAGGAGAGGAUCAUACUGGGUUACCUAA | 0.000894 ± 0.012
CUUAAGGAGUGGACUCUACUGGGUUACCUAA | 0.0088 ± 0.01
CUUUUCCGUCUGGAUCUACUGGGUUACCUAA | 0.385 ± 0.039
CUUUUCCUCUGGAUCUACUGUGUUACCUAA | 0.751 ± 0.048
CUUAAGGAGACGAUCUACUGGGUUUACCUAA | 0.00248 ± 0.004

4 entries from above, as a markdown table:

| Sequence | pre-steady-state target cleavage rate |
| --- | --- |
| CUAUUCCUCUGGAUCUACUGAGUUACCUAA | 0.823 ± 0.06 |
| CUUAAGGAGACCAUCUACUCGGUUACCUAA | 0.00138 ± 0.0047 |
| CUUAUCCUCUGGAUCUUCUGGGAUACCUAA | 0.144 ± 0.025 |
| CUUAAGGAGUGGAUCUACUGGGGUUACCUAA | 0.000179 ± 0.023 |
